Tested on: HLA molecules of primary tumor and normal tissue samples (cancer entities)
Test: Identification and label-free LC-MS quantitation of HLA-presented tumor-associated peptides on tissue samples
Parameters: species or system human
Conditions: FIGS. 1A-1J; HLA-A*24 positive normal (N=75) versus tumor samples (N=263), MS signal intensities

| Substance | over-presentation of the peptide in different cancer tissues |
| --- | --- |
| SEQ ID NO.: 15: peptide found in SLC6A3 (gene looked up) (FMVIAGMPLF; listed as Homo sapiens) | over-presentation |

Same assay, conditions: LC-MS of HLA ligands isolated from tumor tissue samples; cancer entities on which the peptide was presented

| Substance | Peptide Presentation on cancer entities |
| --- | --- |
| 463 (VGGNVTSNF; listed as Homo sapiens) [compound 463] | AML, BRCA, GBC, GC, HCC, HNSCC, NSCLCsquam, OC |
| 464 (VGGNVTSSF; listed as Homo sapiens) [compound 464] | BRCA, GBC, GC, HNSCC, NSCLCadeno, NSCLCsquam, OC |

Same assay, conditions: cancer entities on whose tumor tissue samples the HLA-presented peptide was found (LC-MS); abbreviations in the footnotes of Table 8a

| Substance | Peptide Presentation on cancer entities |
| --- | --- |
| 311 (IQNAILHLF; listed as Homo sapiens) [compound 311] | SCLC |
| 316 (IWAERIMF; listed as Homo sapiens) [compound 316] | NSCLCsquam |
| 179 (MYNMVPFF; listed as Homo sapiens) [compound 179] | NSCLCadeno |
| 84 (YTIERYFTL; listed as Homo sapiens) [compound 84] | GC, NSCLCsquam, UEC |
| 269 (FSFSTSMNEF; listed as Homo sapiens) [compound 269] | PRCA |
| 125 (LYYGSILYI; listed as Homo sapiens) [compound 125] | MEL |
| 164 (MFQEMLQRL; listed as Homo sapiens) [compound 164] | MEL |
| 340 (FPPTPPLF; listed as Homo sapiens) [compound 340] | AML |
| 83 (VLQGEFFLF; listed as Homo sapiens) [compound 83] | NHL |
| 294 (KMGRIVDYF; listed as Homo sapiens) [compound 294] | CCC, GBC, GC |
| 107 (FFFKAGFVWR; listed as Homo sapiens) [compound 107] | NSCLCsquam, UEC |
| 265 (LYQQSDTWSL; listed as Homo sapiens) [compound 265] | HCC, NSCLCadeno |
| 161 (ILQAPLSVF; listed as Homo sapiens) [compound 161] | CLL, GC, MEL, NSCLCadeno, NSCLCother, NSCLCsquam, OSCAR, PACA, RCC, SCLC |
| 359 (TQLPAPLRI; listed as Homo sapiens) [compound 359] | UEC |
| 218 (FYFYNCSSL; listed as Homo sapiens) [compound 218] | UEC |
| 175 (SYFEYRRLL; listed as Homo sapiens) [compound 175] | NSCLCadeno |
| 356 (YSLEHLTQF; listed as Homo sapiens) [compound 356] | OC, UEC |
| 24 (KMLPEASLLI; listed as Homo sapiens) [compound 24] | NHL |
| 350 (VYKWTEEKF; listed as Homo sapiens) [compound 350] | BRCA, NSCLCother, OSCAR |
| 121 (RRYFGEKVAL; listed as Homo sapiens) [compound 121] | PRCA |
| 110 (VYSNPDLFW; listed as Homo sapiens) [compound 110] | NSCLCadeno |
| 378 (VYAVISNIL; listed as Homo sapiens) [compound 378] | GBM, NHL, NSCLCadeno, SCLC |
| 191 (MSYSCGLPSL; listed as Homo sapiens) [compound 191] | GC, HCC |
| 72 (RWLDGSPVTL; listed as Homo sapiens) [compound 72] | NHL |
| 357 (RALLPSPLF; listed as Homo sapiens) [compound 357] | MEL, NHL |

Source: patent publication US12060400B2, “Peptides for use in immunotherapy against cancers” (Immatics Biotechnologies GmbH, priority 2018, dated 2024)
